Measured values published in paper PMC6992696, “Supramolecular tholos-like architecture constituted by archaeal proteins without functional annotation” (Scientific Reports, 2020).
These are yes or no findings as the source states them, for the method shown. Some results given as binding are weak or reduced against the parent protein; the word gives no strength. For some assays here: Where a sequence is shown, tags or fusion partners need not be part of it. Each block holds one binder with its values, some of them ahead of it.

What was measured:
[1] = molecular target: T1, PbaA (PF0015) from Pyrococcus furiosus, full-length (Pyrococcus furiosus) (UniProt Q8U4Q9); test: HS-AFM; purified complexes, side views on bare mica, tapping mode, room temperature, 50 mM Tris-HCl pH 8.0, 150 mM NaCl; both purified
T1 sequence: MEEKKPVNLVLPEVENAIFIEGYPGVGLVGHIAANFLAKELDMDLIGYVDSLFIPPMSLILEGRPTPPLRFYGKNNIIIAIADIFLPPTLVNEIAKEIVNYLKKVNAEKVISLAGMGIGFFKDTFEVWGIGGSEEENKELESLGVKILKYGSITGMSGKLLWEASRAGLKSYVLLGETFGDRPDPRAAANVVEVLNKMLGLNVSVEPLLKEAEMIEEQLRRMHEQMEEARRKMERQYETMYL

[2] = molecular target: T1, PbaA (PF0015) from Pyrococcus furiosus, full-length (Pyrococcus furiosus); test: iCM-SANS; complex of non-deuterated PbaA and 75%-deuterated PF0014, 3 mg/ml in 99.8% D2O, 50 mM Tris-HCl pH 8.0, 150 mM NaCl, 25 °C; both purified
[3] = molecular target: T1, PbaA (PF0015) from Pyrococcus furiosus, full-length (Pyrococcus furiosus); test: negative stain EM; purified complexes at 1.0 mg/ml in 50 mM Tris-HCl pH 8.0, 150 mM NaCl, 2% uranyl acetate, single-particle analysis; both purified
[4] = molecular target: T1, PbaA (PF0015) from Pyrococcus furiosus, full-length (Pyrococcus furiosus); test: SEC; 400 μM monomer of each protein mixed 1:1, dialyzed 12 h against 50 mM Tris-HCl pH 8.0, 200 mM NaCl, 2 mM DTT; HiTrapQ HP and HiLoad Superdex 200; both purified
[5] = molecular target: T1, PbaA (PF0015) from Pyrococcus furiosus, full-length (Pyrococcus furiosus); test: SEC + other: SAXS; SEC-SAXS of the equimolar PbaA/PF0014 mixture; 50 μL of 6 mg/ml on Superdex 200 Increase 10/300 GL, 50 mM Tris-HCl pH 8.0, 150 mM NaCl; both purified
[6] = molecular target: T2, N-terminally hexahistidine-tagged PbaA (Pyrococcus furiosus) (UniProt Q8U4Q9); test: cryo-EM structure; hexahistidine-tagged PbaA/Trx-PF0014 complex treated with excess anti-histidine-tag monoclonal antibody for 2 h at 4 °C; map at 14 Å, C1 symmetry; both purified
T2 sequence: T1 sequence

binding [1]: binds
binding [2]: binds
binding [3]: binds
binding [4]: binds
binding [5]: binds
B1: PF0014 from Pyrococcus furiosus (natural protein, UniProt Q8U4R0 1-128, looked up)
chain: MVVEIPLLSGIARRTLDALMRNPIRTVEIRNARNYMTLEKVKEGDLVFLTYESLEDVMRGTEGIIAMVTRMEKSHQRVPWEESDEREISICRVQLKLVGLGRVVEVQEKNGVVFVKVREMLHHEISMG
notes: PF0014, Pyrococcus furiosus, an archaeal protein without functional annotation; Monomeric by HS-AFM when isolated; ten copies in the complex with PbaA

binding [1]: binds
binding [3]: binds
binding [6]: binds
B2: Trx-tagged PF0014 (Trx-PF0014) (protein, UniProt Q8U4R0 1-128)
chain: B1 chain
